Measured values taken from paper PMC9654355.

Target: ZmSRG7 (stress-related gene, mapping chromosome 7; Zm00001d019704) (maize (Zea mays L.))
Assay: two-hybrid; GAL4 system, bait in pGBKT7 (BD), prey in pGADT7 (AD); transformation checked on SD/-Trp/-Leu; interaction read as growth and blue colour on SD/-Leu/-Trp/-His/-Ade with X-alpha-Gal

binding: binds
B1: Zmdhn1 protein (protein, UniProt P12950 1-168)
chain: MEYGQQGQRGHGRTGHVDQYGNPVGGVEHGTGGMRHGTGTTGGMGQLGEHGGAGMGGGQFQPAREEHKTGGILHRSGSSSSSSSEDDGMGGRRKKGIKEKIKEKLPGGHKDDQHATATTGGAYGQQGHTGSAYGQQGHTGGAYATGTEGTGEKKGIMDKIKEKLPGQH

These are yes or no findings as the source states them, for the method shown. A result given as binding can be weak or reduced; the word gives no strength.
